Patent publication CN117924498A
Results are given in words; binding and its absence hold for the method and conditions named. Some results given as binding are weak or reduced against the parent protein; the word gives no strength.

What was measured:
[1] = target: T1, siglec-15 on tumour cells (UniProt Q6ZMC9); assay: cell immunofluorescence, 20 ug/ml S131-IgG1 on fixed cells
T1 sequence (looked up): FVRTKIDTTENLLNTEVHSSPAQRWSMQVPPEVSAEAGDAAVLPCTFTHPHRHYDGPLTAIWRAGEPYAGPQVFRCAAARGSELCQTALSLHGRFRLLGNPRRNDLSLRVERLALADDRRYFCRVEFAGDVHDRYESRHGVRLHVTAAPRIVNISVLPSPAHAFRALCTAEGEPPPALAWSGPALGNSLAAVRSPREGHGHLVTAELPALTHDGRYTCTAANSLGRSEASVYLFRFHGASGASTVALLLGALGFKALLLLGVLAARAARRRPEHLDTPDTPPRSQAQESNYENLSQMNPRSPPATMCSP

[2] = target: T1, siglec-15 on tumour cells; assay: flow cytometry on A549 cells stably over-expressing siglec-15 (S15-A549)
[3] = target: T1, siglec-15 on tumour cells; assay: flow cytometry on 16-HBE, T24, PC-3, NCI-H157, A549 cells

Measured: binding

B1: S131-IgG1 (antibody, V domains shown)
VH: QVQLQESGPGLVNPSGTLSLSCTVSGDSIRNWYSWVRQPPGKGLEWIGEIHDNGGTNHNPSLKSRVTMSVGKSTSQLSLILNSVTAADTAVYHCAREGLPDGLDIWGPGTMVTVSS
VL: SSELTQDPAVSVALGQTVRITCQGDSLRSYYASWYQRKPGQAPILVMYGQNNRPSGIPDRFSGSNSRNTASLTITGAQAEDEADYYCGSRDTSDYRVLFGGGTKLTVLG
binds: [1] | [2] | [3]
